Measured values taken from article PMC7973409.
Results are given in words; binding and its absence hold for the method and conditions named.

Biological target: T1, DbpA C-terminal construct comprising the C-terminal RecA domain plus the RRM (residues 209–457) (E. coli) (UniProt P21693)
T1 sequence: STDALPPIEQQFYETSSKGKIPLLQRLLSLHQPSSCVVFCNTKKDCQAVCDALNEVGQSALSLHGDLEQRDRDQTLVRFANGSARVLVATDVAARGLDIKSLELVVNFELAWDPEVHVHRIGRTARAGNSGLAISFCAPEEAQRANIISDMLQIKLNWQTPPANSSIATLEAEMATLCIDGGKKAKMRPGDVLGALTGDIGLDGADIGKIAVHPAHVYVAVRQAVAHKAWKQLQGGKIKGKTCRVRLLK
Assay: overlay of NMR spectra (1H13C-HMQC of the isolated constructs against full length DbpA); methyl spectra of each isolated construct compared with that of full length DbpA (residues 1-457); the two constructs were not mixed; 298 K, 800 MHz, perdeuterated ILMVA-labelled samples; both purified

B1: DbpA N-terminal construct comprising the N-terminal RecA domain (residues 1–214) (domain or fragment, UniProt P21693 1-214)
chain: MTAFSTLNVLPPAQLTNLNELGYLTMTPVQAAALPAILAGKDVRVQAKTGSGKTAAFGLGLLQQIDASLFQTQALVLCPTRELADQVAGELRRLARFLPNTKILTLCGGQPFGMQRDSLQHAPHIIVATPGRLLDHLQKGTVSLDALNTLVMDEADRMLDMGFSDAIDDVIRFAPASRQTLLFSATWPEAIAAISGRVQRDPLAIEIDSTDALP
With B1 the binding was “no binding”.
